Measured values published in publication doi:10.1101/2023.08.22.554218.
No constants are given. Whether binding was seen depends on the method and setting. In cells and extracts the contact can be indirect. Here binding means that the protein was enriched with, or labelled near, the bait; the list need not be complete. For some of these results: Where a sequence is shown, tags or fusion partners need not be part of it.

The chains behind the UniProt entries cited, without tags or fusion partners.
UniProt O35465: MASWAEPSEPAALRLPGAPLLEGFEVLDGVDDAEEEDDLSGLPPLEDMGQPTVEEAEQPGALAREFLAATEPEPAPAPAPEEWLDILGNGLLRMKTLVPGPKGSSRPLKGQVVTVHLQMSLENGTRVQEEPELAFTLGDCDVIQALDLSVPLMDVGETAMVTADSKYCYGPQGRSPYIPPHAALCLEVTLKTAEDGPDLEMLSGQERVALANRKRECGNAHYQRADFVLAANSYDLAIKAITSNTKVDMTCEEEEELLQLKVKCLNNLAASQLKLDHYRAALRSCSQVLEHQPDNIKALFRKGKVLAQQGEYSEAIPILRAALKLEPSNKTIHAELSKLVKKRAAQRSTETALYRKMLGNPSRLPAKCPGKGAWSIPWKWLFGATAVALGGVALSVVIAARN
UniProt Q14318: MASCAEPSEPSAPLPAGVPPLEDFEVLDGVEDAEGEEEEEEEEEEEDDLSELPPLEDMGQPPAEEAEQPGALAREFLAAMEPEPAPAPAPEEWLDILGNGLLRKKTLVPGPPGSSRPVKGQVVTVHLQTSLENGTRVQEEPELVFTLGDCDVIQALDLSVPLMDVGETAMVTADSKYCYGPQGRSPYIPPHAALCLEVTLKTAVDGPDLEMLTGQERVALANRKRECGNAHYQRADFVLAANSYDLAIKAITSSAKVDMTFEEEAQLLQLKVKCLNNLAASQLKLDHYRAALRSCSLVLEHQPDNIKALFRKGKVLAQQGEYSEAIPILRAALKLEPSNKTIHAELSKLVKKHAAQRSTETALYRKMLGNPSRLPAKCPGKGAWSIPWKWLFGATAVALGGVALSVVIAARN
UniProt Q9QY76: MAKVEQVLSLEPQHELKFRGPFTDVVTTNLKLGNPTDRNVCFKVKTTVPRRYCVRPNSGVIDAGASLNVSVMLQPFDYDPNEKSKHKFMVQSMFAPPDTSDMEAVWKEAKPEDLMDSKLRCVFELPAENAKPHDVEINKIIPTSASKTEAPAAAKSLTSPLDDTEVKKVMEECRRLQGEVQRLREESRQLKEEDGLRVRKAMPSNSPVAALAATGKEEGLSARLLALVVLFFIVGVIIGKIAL

Key:
[1] = biological target: T1, PDZD8-3×HA (endogenous PDZD8 of the Pdzd8-3×HA knock-in mouse) (mouse (endogenous in neocortex, knock-in)) (UniProt B9EJ80); assay: affinity purification with mass spectrometry
T1 sequence: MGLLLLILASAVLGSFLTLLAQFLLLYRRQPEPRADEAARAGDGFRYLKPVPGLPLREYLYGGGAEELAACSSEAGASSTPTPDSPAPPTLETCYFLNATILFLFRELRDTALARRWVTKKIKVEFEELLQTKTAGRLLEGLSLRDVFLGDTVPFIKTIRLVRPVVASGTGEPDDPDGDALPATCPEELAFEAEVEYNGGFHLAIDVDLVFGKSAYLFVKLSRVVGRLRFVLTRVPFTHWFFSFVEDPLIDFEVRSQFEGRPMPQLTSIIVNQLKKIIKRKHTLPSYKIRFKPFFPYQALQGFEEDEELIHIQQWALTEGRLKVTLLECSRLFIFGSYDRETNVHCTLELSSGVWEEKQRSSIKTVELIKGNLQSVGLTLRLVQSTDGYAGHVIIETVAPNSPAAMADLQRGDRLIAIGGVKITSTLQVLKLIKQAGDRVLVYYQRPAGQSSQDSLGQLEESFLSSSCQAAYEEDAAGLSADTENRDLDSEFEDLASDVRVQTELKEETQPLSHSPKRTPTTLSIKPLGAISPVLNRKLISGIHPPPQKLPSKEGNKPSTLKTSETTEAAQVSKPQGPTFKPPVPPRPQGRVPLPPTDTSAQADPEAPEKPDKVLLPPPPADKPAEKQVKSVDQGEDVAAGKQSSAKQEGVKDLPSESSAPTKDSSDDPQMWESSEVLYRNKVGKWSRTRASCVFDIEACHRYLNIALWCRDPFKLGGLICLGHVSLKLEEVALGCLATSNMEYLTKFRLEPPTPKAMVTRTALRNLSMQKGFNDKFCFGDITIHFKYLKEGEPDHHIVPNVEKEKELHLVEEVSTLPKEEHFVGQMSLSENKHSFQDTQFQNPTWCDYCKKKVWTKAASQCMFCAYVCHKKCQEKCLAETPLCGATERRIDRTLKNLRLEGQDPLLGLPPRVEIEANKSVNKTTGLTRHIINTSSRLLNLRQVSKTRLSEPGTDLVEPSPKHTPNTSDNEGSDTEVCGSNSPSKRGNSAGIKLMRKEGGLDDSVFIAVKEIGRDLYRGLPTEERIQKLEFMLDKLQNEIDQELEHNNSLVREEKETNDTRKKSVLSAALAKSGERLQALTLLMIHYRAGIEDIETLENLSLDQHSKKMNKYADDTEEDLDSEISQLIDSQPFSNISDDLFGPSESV

[2] = biological target: T2, PDZD8-TurboID (endogenous PDZD8 of PDZD8-TurboID KI HeLa cells) (human (endogenous in HeLa, knock-in)) (UniProt Q8NEN9); assay: proximity labelling
T2 sequence: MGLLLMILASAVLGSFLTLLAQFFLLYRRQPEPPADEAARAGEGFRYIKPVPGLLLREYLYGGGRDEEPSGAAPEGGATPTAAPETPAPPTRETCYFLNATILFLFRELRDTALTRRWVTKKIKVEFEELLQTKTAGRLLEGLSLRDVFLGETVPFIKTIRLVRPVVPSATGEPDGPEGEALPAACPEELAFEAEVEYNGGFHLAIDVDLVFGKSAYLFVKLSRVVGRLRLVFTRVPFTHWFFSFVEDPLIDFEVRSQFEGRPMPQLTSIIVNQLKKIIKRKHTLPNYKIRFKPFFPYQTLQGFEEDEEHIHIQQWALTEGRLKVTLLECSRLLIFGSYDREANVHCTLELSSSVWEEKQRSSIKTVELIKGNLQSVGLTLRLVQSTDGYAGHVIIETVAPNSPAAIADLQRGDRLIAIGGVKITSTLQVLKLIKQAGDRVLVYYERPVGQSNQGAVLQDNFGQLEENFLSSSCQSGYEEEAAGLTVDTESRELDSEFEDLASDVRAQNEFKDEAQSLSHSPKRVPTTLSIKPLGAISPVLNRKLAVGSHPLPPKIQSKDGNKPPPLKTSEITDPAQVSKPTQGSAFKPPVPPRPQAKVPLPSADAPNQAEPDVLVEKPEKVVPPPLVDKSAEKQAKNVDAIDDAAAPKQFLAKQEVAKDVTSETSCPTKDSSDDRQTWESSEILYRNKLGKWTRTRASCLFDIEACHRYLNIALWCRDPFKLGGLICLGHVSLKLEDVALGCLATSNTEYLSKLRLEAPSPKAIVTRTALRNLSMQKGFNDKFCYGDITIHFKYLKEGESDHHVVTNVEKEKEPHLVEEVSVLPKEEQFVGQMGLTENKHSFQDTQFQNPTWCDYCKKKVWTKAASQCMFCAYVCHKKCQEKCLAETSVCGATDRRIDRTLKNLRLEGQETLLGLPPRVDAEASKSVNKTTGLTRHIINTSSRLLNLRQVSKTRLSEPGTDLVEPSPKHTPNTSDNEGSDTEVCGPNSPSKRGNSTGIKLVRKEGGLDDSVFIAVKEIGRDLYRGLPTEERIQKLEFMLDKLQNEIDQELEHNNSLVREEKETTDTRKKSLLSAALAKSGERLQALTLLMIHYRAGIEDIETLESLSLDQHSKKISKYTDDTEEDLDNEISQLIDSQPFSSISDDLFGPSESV

[3] = biological target: T3, PDZD8-v5-TurboID (endogenous PDZD8 of Pdzd8-v5-TurboID KI Neuro2a cells) (mouse (endogenous in Neuro2a, knock-in)) (UniProt B9EJ80); assay: proximity labelling
T3 sequence: T1 sequence

Row | Substance | binding [1] | further results
1 | FK506 binding protein 8 (FKBP8), endogenous, mouse neocortex (from UniProt O35465 1-402) | binds | 
2 | FKBP8, endogenous, HeLa cells (from UniProt Q14318 1-412) |  | binding [2]: binds
3 | FKBP8, endogenous, Neuro2a cells (from UniProt O35465 1-402) |  | binding [3]: binds
4 | VAPB, endogenous, mouse neocortex (from UniProt Q9QY76 1-243) | binds | 
